From PMC11116813

Chains of the proteins cited; added tags and fusions are not shown.
UniProt P45973: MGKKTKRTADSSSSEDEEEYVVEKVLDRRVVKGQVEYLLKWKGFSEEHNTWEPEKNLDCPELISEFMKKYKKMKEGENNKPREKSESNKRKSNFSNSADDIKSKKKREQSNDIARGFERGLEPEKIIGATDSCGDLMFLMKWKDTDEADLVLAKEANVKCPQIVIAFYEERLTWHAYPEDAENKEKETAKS

Legend:
[1] = target: T1, human INCENP (160-210) -6His, GST removed (human) (UniProt Q9NQS7); test: NMR titration; 15N- or 13C/15N-labelled INCENP fragment (160–210 or 160–192) with unlabelled full-length HP1α or HP1α CSD added stepwise; 1H-15N HSQC, 298 K, 20 mM NaPO4 pH 7.0, 150 mM NaCl, 1 mM DTT, 5% D2O; both purified
T1 sequence: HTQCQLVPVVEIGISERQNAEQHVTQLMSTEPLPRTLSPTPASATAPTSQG

[2] = target: T2, human INCENP (160-192), untagged version (Tyr-added), GST removed (human) (UniProt Q9NQS7); test: as above
T2 sequence: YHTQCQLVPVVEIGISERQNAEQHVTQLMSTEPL

[3] = target: T1, human INCENP (160-210) -6His, GST removed (human); test: ITC; VP-ITC, 10 μM INCENP peptide or fragment in the cell, 100 μM HP1α full-length or CSD dimer in the syringe, 20°C, 20 mM NaPO4 pH 7.0, 150 mM NaCl, 1 mM DTT (Fig. 2D, Fig. 3D and E); one-site model; both purified
[4] = target: T2, human INCENP (160-192), untagged version (Tyr-added), GST removed (human); test: as above
[5] = target: human INCENP (121-178) PVI_3A mutant fragment (human) (UniProt Q9NQS7); test: ITC; INCENP fragments 121–178 (wild type or PVI_3A) and full-length HP1α dimer (Fig. S2E); instrument and buffer not told for this panel; both purified

Substance | binding [1] | binding [2] | binding [3] | binding [4] | binding [5]
human HP1α chromoshadow domain (CSD), recombinant (domain or fragment) | binds | binds | binds | binds | 
full-length human HP1α WT (hHP1α), recombinant (from UniProt P45973 1-191) |  |  |  |  | no binding

These are yes or no findings as the source states them, for the method shown. For some assays here: A result given as binding can be weak or reduced; the word gives no strength. For some assays here: Sequences can lack the tags named with a protein.
